Source: the supplement of paper PMC10849652
Some of the results follow.

Amino acid sequences for entries named in this document (tags omitted). A change or cut given only in a name is not applied to a line headed by its entry.
UniProt Q6IAN0: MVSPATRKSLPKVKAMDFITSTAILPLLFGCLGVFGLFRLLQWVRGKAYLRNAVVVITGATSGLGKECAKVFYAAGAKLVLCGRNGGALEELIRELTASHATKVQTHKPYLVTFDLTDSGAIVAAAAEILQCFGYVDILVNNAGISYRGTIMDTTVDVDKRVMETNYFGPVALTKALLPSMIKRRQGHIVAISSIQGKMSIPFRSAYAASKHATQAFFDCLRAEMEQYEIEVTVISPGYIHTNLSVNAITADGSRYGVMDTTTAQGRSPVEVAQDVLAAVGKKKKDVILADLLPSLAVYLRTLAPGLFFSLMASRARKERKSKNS
UniProt Q96EY1: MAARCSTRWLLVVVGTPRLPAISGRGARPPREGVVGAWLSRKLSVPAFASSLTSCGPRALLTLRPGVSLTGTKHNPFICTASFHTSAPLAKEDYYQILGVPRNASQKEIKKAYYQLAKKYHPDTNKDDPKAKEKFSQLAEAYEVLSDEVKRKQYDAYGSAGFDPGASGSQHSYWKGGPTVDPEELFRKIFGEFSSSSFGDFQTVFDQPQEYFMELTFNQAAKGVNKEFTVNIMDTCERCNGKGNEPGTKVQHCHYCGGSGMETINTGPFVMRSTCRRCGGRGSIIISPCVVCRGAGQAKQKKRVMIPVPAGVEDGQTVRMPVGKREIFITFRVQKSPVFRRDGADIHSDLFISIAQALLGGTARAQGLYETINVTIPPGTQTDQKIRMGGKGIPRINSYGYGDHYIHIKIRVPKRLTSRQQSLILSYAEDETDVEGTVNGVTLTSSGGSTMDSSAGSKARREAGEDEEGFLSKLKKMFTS
UniProt O76075: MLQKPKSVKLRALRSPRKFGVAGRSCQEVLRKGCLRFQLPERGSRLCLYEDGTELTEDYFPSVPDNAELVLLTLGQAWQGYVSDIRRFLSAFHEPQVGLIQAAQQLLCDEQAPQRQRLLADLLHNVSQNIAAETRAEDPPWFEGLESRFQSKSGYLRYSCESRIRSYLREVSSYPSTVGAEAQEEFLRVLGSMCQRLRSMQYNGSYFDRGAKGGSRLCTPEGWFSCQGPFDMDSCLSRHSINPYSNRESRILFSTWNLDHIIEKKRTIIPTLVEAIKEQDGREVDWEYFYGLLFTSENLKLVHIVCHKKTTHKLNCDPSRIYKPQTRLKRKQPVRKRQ
UniProt Q7Z478: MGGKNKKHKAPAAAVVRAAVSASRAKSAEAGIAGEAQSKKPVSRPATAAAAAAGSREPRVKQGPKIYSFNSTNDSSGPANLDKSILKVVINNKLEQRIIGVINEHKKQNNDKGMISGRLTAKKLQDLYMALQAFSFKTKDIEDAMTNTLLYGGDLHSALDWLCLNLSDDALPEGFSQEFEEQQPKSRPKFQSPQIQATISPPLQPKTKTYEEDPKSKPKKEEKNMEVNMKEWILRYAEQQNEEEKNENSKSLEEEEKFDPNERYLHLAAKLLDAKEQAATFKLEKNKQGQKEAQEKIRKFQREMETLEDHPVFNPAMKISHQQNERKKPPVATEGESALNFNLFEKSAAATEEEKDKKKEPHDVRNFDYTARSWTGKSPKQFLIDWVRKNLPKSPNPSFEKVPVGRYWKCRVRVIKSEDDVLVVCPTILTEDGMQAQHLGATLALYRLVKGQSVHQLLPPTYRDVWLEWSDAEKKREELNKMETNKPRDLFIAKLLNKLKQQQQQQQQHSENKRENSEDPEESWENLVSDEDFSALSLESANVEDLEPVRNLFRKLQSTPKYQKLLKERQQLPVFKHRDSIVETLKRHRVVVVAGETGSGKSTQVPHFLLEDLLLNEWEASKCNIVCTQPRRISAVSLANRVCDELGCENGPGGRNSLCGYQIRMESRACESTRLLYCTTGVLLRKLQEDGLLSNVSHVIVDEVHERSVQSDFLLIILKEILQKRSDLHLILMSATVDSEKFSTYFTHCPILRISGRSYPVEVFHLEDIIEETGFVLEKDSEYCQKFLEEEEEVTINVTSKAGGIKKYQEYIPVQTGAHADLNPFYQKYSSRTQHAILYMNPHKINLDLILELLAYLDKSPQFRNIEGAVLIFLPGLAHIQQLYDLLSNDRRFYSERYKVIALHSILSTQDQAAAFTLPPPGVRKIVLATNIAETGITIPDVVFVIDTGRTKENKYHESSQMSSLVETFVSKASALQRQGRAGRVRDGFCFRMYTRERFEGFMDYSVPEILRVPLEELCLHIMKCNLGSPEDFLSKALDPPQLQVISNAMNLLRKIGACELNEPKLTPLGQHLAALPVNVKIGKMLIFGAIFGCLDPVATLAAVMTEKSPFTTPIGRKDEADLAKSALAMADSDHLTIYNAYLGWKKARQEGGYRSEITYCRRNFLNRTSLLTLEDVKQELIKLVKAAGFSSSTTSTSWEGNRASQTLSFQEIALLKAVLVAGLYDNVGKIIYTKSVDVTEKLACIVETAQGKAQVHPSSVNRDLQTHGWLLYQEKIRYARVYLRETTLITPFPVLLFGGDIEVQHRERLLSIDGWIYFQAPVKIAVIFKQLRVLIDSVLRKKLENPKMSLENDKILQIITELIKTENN
UniProt O60231: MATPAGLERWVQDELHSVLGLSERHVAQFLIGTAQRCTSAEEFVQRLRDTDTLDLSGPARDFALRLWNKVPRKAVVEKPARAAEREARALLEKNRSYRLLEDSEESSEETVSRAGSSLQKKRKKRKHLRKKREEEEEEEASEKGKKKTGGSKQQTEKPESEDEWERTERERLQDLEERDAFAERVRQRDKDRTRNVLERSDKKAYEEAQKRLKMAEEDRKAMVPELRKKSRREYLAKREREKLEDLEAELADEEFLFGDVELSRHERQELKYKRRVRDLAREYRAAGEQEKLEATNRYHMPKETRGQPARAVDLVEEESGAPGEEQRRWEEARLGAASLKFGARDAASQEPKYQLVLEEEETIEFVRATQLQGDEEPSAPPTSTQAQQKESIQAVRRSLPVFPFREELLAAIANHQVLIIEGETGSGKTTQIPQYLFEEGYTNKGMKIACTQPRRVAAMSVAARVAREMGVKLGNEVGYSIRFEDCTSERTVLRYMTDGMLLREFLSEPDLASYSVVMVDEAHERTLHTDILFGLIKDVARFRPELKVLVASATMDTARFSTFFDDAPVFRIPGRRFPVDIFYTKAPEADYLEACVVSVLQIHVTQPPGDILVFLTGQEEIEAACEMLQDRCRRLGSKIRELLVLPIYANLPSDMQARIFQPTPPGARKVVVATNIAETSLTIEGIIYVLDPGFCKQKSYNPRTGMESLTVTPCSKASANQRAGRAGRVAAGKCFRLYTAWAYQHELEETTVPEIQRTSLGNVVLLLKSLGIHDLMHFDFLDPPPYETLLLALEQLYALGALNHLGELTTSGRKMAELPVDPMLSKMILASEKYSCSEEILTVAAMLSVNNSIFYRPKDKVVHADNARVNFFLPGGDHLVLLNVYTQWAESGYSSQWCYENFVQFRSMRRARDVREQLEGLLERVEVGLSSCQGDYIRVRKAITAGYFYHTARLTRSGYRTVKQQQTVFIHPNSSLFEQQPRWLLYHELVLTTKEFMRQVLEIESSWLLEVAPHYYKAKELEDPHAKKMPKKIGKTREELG
UniProt P00374: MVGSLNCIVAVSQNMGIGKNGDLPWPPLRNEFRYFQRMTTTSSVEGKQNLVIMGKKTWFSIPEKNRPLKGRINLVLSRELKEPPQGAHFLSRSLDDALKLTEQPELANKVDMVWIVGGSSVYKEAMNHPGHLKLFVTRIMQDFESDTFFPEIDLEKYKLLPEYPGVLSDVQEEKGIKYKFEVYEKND
UniProt Q9BZ29: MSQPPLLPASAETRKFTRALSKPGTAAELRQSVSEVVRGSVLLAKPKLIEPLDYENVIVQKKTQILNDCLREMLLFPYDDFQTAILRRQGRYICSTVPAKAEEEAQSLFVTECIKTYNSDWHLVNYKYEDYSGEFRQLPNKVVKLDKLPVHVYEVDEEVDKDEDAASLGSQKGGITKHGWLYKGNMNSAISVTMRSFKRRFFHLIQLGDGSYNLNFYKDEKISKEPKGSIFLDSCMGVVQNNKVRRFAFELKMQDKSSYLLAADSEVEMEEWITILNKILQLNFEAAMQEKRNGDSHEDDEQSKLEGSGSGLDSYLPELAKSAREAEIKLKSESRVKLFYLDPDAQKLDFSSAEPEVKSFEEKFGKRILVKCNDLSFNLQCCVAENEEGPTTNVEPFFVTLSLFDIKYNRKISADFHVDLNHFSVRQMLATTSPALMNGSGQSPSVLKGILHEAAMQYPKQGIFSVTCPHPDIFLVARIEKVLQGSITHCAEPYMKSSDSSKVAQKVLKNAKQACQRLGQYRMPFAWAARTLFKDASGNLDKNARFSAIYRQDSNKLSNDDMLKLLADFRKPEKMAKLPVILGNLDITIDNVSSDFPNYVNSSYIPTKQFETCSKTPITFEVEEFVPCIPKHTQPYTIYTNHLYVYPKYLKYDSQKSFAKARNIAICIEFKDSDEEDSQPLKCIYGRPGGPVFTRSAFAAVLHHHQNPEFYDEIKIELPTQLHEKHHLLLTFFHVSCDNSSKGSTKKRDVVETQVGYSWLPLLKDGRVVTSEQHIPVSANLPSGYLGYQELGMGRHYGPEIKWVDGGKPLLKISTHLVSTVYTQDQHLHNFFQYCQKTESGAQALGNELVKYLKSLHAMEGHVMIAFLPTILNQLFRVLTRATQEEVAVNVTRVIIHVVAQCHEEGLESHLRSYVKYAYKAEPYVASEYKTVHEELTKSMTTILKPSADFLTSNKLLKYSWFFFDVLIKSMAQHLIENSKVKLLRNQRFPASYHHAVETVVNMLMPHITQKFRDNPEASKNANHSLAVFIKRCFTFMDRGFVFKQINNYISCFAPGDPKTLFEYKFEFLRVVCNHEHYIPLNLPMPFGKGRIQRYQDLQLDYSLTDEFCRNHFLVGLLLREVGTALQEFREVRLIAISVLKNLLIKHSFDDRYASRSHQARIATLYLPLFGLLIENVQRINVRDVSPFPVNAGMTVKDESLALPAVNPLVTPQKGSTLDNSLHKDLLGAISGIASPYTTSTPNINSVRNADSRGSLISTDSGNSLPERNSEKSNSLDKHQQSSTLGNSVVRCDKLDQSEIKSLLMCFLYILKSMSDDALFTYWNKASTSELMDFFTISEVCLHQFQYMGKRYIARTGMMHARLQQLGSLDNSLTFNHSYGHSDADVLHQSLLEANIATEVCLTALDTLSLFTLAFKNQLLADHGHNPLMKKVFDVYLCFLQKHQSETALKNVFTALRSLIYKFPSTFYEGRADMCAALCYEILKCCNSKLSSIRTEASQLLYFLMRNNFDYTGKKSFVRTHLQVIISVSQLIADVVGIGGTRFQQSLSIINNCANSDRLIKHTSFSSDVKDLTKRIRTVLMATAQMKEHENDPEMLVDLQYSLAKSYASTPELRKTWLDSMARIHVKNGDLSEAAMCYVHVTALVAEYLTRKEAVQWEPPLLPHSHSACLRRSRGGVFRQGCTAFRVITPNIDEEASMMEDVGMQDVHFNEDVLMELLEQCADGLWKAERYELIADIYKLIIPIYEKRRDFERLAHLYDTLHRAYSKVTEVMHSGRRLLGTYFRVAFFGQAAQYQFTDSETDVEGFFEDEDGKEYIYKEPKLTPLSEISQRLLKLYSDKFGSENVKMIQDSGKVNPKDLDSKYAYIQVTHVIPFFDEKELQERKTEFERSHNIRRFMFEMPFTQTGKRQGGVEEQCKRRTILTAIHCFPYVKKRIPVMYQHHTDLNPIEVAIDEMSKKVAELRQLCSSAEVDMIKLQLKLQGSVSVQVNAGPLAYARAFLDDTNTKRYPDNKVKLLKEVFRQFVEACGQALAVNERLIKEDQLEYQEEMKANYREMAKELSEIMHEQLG
UniProt O60832: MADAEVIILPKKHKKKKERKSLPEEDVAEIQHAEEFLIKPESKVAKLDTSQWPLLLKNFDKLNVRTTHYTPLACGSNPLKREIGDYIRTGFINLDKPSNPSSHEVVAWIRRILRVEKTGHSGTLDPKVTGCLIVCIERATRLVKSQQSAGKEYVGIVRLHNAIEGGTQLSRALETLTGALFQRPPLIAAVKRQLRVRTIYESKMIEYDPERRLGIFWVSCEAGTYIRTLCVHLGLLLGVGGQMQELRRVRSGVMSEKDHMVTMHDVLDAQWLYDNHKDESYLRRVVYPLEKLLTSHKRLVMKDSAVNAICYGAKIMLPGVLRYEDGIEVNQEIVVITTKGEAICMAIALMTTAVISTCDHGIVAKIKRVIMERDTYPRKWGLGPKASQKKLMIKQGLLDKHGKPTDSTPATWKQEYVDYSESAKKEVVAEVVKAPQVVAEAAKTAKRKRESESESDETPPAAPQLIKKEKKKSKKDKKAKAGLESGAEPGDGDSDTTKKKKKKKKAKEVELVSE
UniProt Q86YN1: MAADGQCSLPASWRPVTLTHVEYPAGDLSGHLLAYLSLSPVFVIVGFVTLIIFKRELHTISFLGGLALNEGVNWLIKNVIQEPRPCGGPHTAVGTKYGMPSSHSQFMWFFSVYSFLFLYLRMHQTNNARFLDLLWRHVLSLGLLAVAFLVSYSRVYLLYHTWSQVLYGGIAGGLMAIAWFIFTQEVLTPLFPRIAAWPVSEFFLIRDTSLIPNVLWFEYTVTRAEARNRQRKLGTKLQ

Legend:
Assay in all cases: log2 fold change, soluble protein after heating vs DMSO (PISA); higher = thermal stabilisation; K562 lysate, 10 uM; active = over 0.2 and 3.5 SD of the protein, either way, in both replicates (recomputed)
[1] = compound: CCCS(=O)(=O)Nc1ccc(F)c(C(=O)c2c[nH]c3ncc(-c4ccc(Cl)cc4)cc23)c1F [vemurafenib]
Procedure, shortened: (§1)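 Quantification was by TMTpro 16plex LC-MS/MS with equalised channel sums, applied to the supernatant after 21,000xg for 90 min. Samples were crude K562 extract at 1 mg/mL protein in PBS pH 7.4 with 1 mM MgCl2, treated with 10 μM compound for 30 min, heated for 3 min across 48°C-58°C, pooled and brought to 0.5% NP-40 at 4°C. Values are log-two fold changes in thermal stability relative to solvent controls, from duplicates.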

[2] = compound: CCCS(=O)(=O)Nc1ccc(F)c(C(=O)c2c[nH]c3ncc(Cl)cc23)c1F
Procedure, shortened: as §1

[3] = compound: CCN(CCCOc1ccc2c(Nc3cc(CC(=O)Nc4cccc(F)c4)[nH]n3)ncnc2c1)CCOP(=O)(O)O [barasertib]
Procedure, shortened: as §1

[4] = compound: CC[C@@H]1C(=O)N(C)c2cnc(Nc3ccc(C(=O)NC4CCN(C)CC4)cc3OC)nc2N1C1CCCC1
Procedure, shortened: as §1

[5] = compound: CC[C@@H]1C(=O)N(C)c2cnc(Nc3ccc(C(=O)N[C@H]4CC[C@H](N5CCN(CC6CC6)CC5)CC4)cc3OC)nc2N1C(C)C [volasertib]
Procedure, shortened: as §1

[6] = compound: CCn1c(C(=O)N(C2CC2)C2CC2)cc2c3c(ncn3C)c(Nc3cc(C)n(C)n3)nc21
Procedure, shortened: as §1

[7] = compound: CCn1cc(-c2ccnc3[nH]c(-c4cccc(CN(C)C)c4)cc23)c(-c2ccc(NC(=O)N(C)C)cc2)n1
Procedure, shortened: as §1

[8] = compound: CN1CCC(CNc2ccc3ncc(-c4cccc(OC(F)(F)F)c4)n3n2)CC1
Procedure, shortened: as §1

[9] = compound: CN1CCN(CCOc2cc(OC3CCOCC3)c3c(Nc4c(Cl)ccc5c4OCO5)ncnc3c2)CC1 [saracatinib]
Procedure, shortened: as §1

[10] = compound: CN1CCN(c2nc(C3=C(c4c[nH]c5ccccc45)C(=O)NC3=O)c3ccccc3n2)CC1 [sotrastaurin]
Procedure, shortened: as §1

Measured: log2 fold change

DNAJC5 (UniProt Q9H3Z4)
active: [7] -0.476
inactive: [1] 0.001 | [2] -0.02 | [3] 0.008 | [4] -0.031 | [5] 0.012 | [6] 0.015 | [8] 0.243 | [9] 0.01 | [10] 0.041

DOCK8 (UniProt Q8NF50)
inactive: [1] 0.005 | [2] 0.013 | [3] 0.034 | [4] -0.075 | [5] -0.065 | [6] 0.04 | [7] 0 | [8] -0.033 | [9] 0.012 | [10] 0.023

DNMBP (UniProt Q6XZF7)
inactive: [1] 0.025 | [2] 0.01 | [3] 0.029 | [4] -0.008 | [5] 0.024 | [6] -0.066 | [7] 0.172 | [8] -0.139 | [9] 0.111 | [10] 0.046

DLD (UniProt P09622)
inactive: [1] 0.007 | [2] 0.003 | [3] -0.032 | [4] 0.032 | [5] 0.057 | [6] -0.018 | [7] -0.071 | [8] 0.04 | [9] 0.009 | [10] -0.015

DHRS7B (UniProt Q6IAN0)
inactive: [1] -0.025 | [2] 0.036 | [3] 0.015 | [4] -0.013 | [5] -0.031 | [6] -0.033 | [7] -0.066 | [8] 0.018 | [9] -0.026 | [10] 0.036

DNAJC6 isoform 2 (UniProt O75061)
inactive: [1] 0.009 | [2] -0.01 | [3] -0.013 | [4] 0.086 | [5] -0.008 | [6] -0.004 | [7] -0.006 | [8] 0.058 | [9] 0.003 | [10] -0.001

DNAJA3 (UniProt Q96EY1)
inactive: [1] 0.038 | [2] 0.022 | [3] -0.082 | [4] -0.023 | [5] -0.004 | [6] 0.004 | [7] -0.003 | [8] 0.011 | [9] 0.041 | [10] 0.002

DHPS (UniProt P49366)
inactive: [1] 0.006 | [2] -0.006 | [3] -0.032 | [4] 0.027 | [5] 0.033 | [6] -0.018 | [7] -0.047 | [8] 0.039 | [9] -0.012 | [10] 0.008

DNAJC11 (UniProt Q9NVH1)
inactive: [1] 0.004 | [2] 0.005 | [3] 0.046 | [4] -0.023 | [5] 0.01 | [6] 0.013 | [7] -0.015 | [8] -0.041 | [9] 0.028 | [10] -0.009

DNPEP (UniProt Q9ULA0)
inactive: [1] 0 | [2] 0.005 | [3] -0.018 | [4] 0.031 | [5] 0.004 | [6] -0.024 | [7] -0.028 | [8] 0.036 | [9] 0.023 | [10] -0.016

DOK1 (UniProt Q99704)
inactive: [1] 0.028 | [2] 0.061 | [3] -0.027 | [4] -0.113 | [5] -0.026 | [6] 0.021 | [7] -0.055 | [8] 0.101 | [9] 0.024 | [10] 0.029

DGCR8 (UniProt Q8WYQ5)
inactive: [1] -0.022 | [2] 0.031 | [3] 0.062 | [4] -0.046 | [5] -0.021 | [6] 0.015 | [7] -0.052 | [8] 0.066 | [9] 0.042 | [10] 0.04

DFFB (UniProt O76075)
inactive: [1] 0.022 | [2] 0.044 | [3] -0.064 | [4] 0.037 | [5] -0.012 | [6] 0.1 | [7] -0.024 | [8] 0.061 | [9] 0.042 | [10] 0.06

DNAJC12 (UniProt Q9UKB3)
inactive: [1] -0.021 | [2] 0.027 | [3] 0.042 | [4] 0.132 | [5] 0.007 | [6] 0.013 | [7] -0.006 | [8] 0.035 | [9] 0.044 | [10] -0.052

DNAJC3 (UniProt Q13217)
inactive: [1] -0.016 | [2] 0.009 | [3] 0.006 | [4] 0.023 | [5] -0.004 | [6] 0.082 | [7] 0.016 | [8] -0.076 | [9] 0.008 | [10] -0.109

DNAJA2 (UniProt O60884)
inactive: [1] -0.028 | [2] -0.026 | [3] -0.003 | [4] 0.014 | [5] -0.006 | [6] 0.002 | [7] 0.12 | [8] -0.022 | [9] 0.008 | [10] -0.009

DHX29 (UniProt Q7Z478)
inactive: [1] -0.007 | [2] 0.029 | [3] 0.019 | [4] 0.019 | [5] -0.015 | [6] -0.036 | [7] -0.06 | [8] -0.024 | [9] 0.009 | [10] 0.01

DHX16 (UniProt O60231)
inactive: [1] 0.026 | [2] 0.031 | [3] 0.002 | [4] -0.019 | [5] -0.024 | [6] -0.029 | [7] 0.044 | [8] -0.117 | [9] 0.005 | [10] 0.021

DHCR7 (UniProt Q9UBM7)
inactive: [1] -0.02 | [2] 0.004 | [3] 0.029 | [4] -0.061 | [5] -0.036 | [6] 0.025 | [7] -0.033 | [8] -0.069 | [9] 0.017 | [10] -0.041

DMXL2 isoform 3 (UniProt Q8TDJ6)
inactive: [1] 0.044 | [2] 0.003 | [3] 0.102 | [4] 0.073 | [5] -0.058 | [6] 0.025 | [7] -0.051 | [8] 0.059 | [9] 0.023 | [10] 0.028

DHFR (UniProt P00374)
inactive: [1] -0.047 | [3] 0.061 | [4] -0.035 | [5] 0.013 | [6] 0.046 | [7] 0.072 | [8] -0.019 | [9] -0.008 | [10] 0.042
active: [2] 0.206

DHCR24 (UniProt Q15392)
inactive: [1] -0.011 | [2] 0.002 | [3] 0 | [4] 0.104 | [5] 0.038 | [6] -0.128 | [7] -0.084 | [8] 0.269 | [9] 0.002 | [10] -0.013

Taken from the listing (8 entries):
DNAJC6 isoform 2 (UniProt O75061)
inactive: [1] 0.009 | [2] -0.01 | [3] -0.013 | [4] 0.086 | [5] -0.008 | [6] -0.004 | [7] -0.006 | [8] 0.058 | [9] 0.003 | [10] -0.001

DNAJA3 (UniProt Q96EY1)
inactive: [1] 0.038 | [2] 0.022 | [3] -0.082 | [4] -0.023 | [5] -0.004 | [6] 0.004 | [7] -0.003 | [8] 0.011 | [9] 0.041 | [10] 0.002

DHPS (UniProt P49366)
inactive: [1] 0.006 | [2] -0.006 | [3] -0.032 | [4] 0.027 | [5] 0.033 | [6] -0.018 | [7] -0.047 | [8] 0.039 | [9] -0.012 | [10] 0.008

DNAJC11 (UniProt Q9NVH1)
inactive: [1] 0.004 | [2] 0.005 | [3] 0.046 | [4] -0.023 | [5] 0.01 | [6] 0.013 | [7] -0.015 | [8] -0.041 | [9] 0.028 | [10] -0.009

DNPEP (UniProt Q9ULA0)
inactive: [1] 0 | [2] 0.005 | [3] -0.018 | [4] 0.031 | [5] 0.004 | [6] -0.024 | [7] -0.028 | [8] 0.036 | [9] 0.023 | [10] -0.016

DOK1 (UniProt Q99704)
inactive: [1] 0.028 | [2] 0.061 | [3] -0.027 | [4] -0.113 | [5] -0.026 | [6] 0.021 | [7] -0.055 | [8] 0.101 | [9] 0.024 | [10] 0.029

DGCR8 (UniProt Q8WYQ5)
inactive: [1] -0.022 | [2] 0.031 | [3] 0.062 | [4] -0.046 | [5] -0.021 | [6] 0.015 | [7] -0.052 | [8] 0.066 | [9] 0.042 | [10] 0.04

DFFB (UniProt O76075)
inactive: [1] 0.022 | [2] 0.044 | [3] -0.064 | [4] 0.037 | [5] -0.012 | [6] 0.1 | [7] -0.024 | [8] 0.061 | [9] 0.042 | [10] 0.06

The list continues.

DOCK9 isoform 4 (UniProt Q9BZ29)
inactive: [1] 0.023 | [2] 0.002 | [3] -0.006 | [4] -0.021 | [5] -0.012 | [6] -0.104 | [7] -0.047 | [8] -0.034 | [9] 0.032 | [10] 0.009

DKC1 (UniProt O60832)
inactive: [1] 0.008 | [2] 0.025 | [3] 0.043 | [4] 0.061 | [5] 0.016 | [6] 0 | [7] -0.051 | [8] 0.035 | [9] 0.02 | [10] -0.003

DHRS3 (UniProt O75911)
inactive: [1] 0.082 | [2] 0.012 | [3] -0.01 | [4] -0.03 | [5] 0.033 | [6] -0.041 | [7] -0.061 | [8] 0.034 | [9] 0.029 | [10] 0.013

DMTF1 (UniProt Q9Y222)
inactive: [1] 0.12 | [2] 0.028 | [3] -0.109 | [4] 0.135 | [5] 0 | [6] -0.034 | [7] -0.084 | [8] 0.021 | [9] 0.028 | [10] -0.015

DHX36 (UniProt Q9H2U1)
inactive: [1] 0.013 | [2] 0.016 | [3] 0.019 | [4] -0.073 | [5] -0.002 | [6] -0.069 | [7] -0.016 | [8] 0.027 | [9] 0.008 | [10] 0.005

DLGAP4 (UniProt Q9Y2H0)
inactive: [1] -0.051 | [2] -0.008 | [3] -0.006 | [4] 0.007 | [5] 0.031 | [6] 0.013 | [7] -0.004 | [8] 0.048 | [9] -0.018 | [10] 0

DNM1L isoform 6 (UniProt O00429)
inactive: [1] 0.02 | [2] -0.007 | [3] 0.002 | [4] -0.002 | [5] -0.023 | [6] 0.026 | [7] 0.079 | [8] -0.063 | [9] 0.016 | [10] -0.017

DOLPP1 (UniProt Q86YN1)
inactive: [1] 0.033 | [2] 0.016 | [3] -0.056 | [4] 0.026 | [5] 0.031 | [6] -0.028 | [7] -0.071 | [8] 0 | [9] -0.012 | [10] 0.036
